Where a name gives a salt, the structure may show the parent alone. This is one part of the list. Repeats are few or missing, and single values can be far off.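 Three clinical Candida auris isolates (clades III, IV and I) from the CDC resistance isolate bank were grown in RPMI-1640 at 35°C. Growth was background-corrected OD600 relative to same-plate vehicle-only wells. Hits required over 50% inhibition in at least two strains and a plate-corrected B-score above 0.1.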
Legend:
Assay in all cases: growth relative to vehicle control (OD600 ratio) (fraction); higher = less inhibition
Conditions in all cases: 24 h
C. auris AR-384 = test system: C. auris AR-384
C. auris AR-386 = test system: C. auris AR-386
C. auris AR-387 = test system: C. auris AR-387

Structure (SMILES)	growth (C. auris AR-384; 1 µM)	growth (C. auris AR-384; 10 µM)	growth (C. auris AR-386; 1 µM)	growth (C. auris AR-386; 10 µM)	growth (C. auris AR-387; 1 µM)	growth (C. auris AR-387; 10 µM)
COCCOC(=O)C1=C(C)NC(C)=C(C(=O)OC(C)C)C1c1cccc([N+](=O)[O-])c1 (centres undefined) [Nimodipine]	0.92	0.84	0.88	1.09	0.8	0.99
Cc1c(-c2ccc(O)cc2)n(Cc2ccc(OCCN3CCCCCC3)cc2)c2ccc(O)cc12 [Bazedoxifene HCl]	0.66	0.84	0.85	0.87	0.73	0.97
C[C@@H]1O[C@@H](OC[C@H]2O[C@@H](Oc3c(-c4ccc(OCCO)c(OCCO)c4)oc4cc(OCCO)cc(O)c4c3=O)[C@H](O)[C@@H](O)[C@@H]2O)[C@H](O)[C@H](O)[C@H]1O [Troxerutin]	0.99	0.95	1.13	1.16	1.28	1.27
CC[C@H]1OC(=O)[C@H](C)[C@@H](O[C@H]2C[C@@](C)(OC)[C@@H](O)[C@H](C)O2)[C@H](C)[C@@H](O[C@@H]2O[C@H](C)C[C@H](N(C)C)[C@H]2O)[C@](C)(O)C[C@@H](C)CN(C)[C@H](C)[C@@H](O)[C@]1(C)O [Azithromycin]	0.69	0.83	0.84	0.82	0.78	0.77
CCCc1cc(=O)[nH]c(=S)[nH]1 [Propylthiouracil]	0.74	0.51	0.74	0.95	0.76	0.59
C[C@H]1C[C@H]2[C@@H]3CCC4=CC(=O)C=C[C@]4(C)[C@@]3(F)[C@@H](O)C[C@]2(C)[C@@]1(O)C(=O)CO [Betamethasone]	0.61	0.51	0.9	0.81	1	0.92
CC(=O)O[C@]1(C(C)=O)CC[C@H]2[C@@H]3C[C@H](C)C4=CC(=O)C=C[C@]4(C)[C@@]3(F)[C@@H](O)C[C@@]21C [Fluorometholone Acetate]	1.05	1.3	1.22	1.32	1.27	1.18
Cc1ccc(Nc2nccc(N(C)c3ccc4c(C)n(C)nc4c3)n2)cc1S(N)(=O)=O [Pazopanib]	1.3	1.34	1.1	0.98	0.84	1.1
O=C1C(CC[S+]([O-])c2ccccc2)C(=O)N(c2ccccc2)N1c1ccccc1 (racemic) [(+/-)-Sulfinpyrazone]	0.92	0.81	0.96	0.92	1.01	1.09
NCC(=O)CCC(=O)O [5-Aminolevulinic acid HCl]	0.9	1.03	1.24	1.06	1.22	1.29
Nc1nc(NC2CC2)c2ncn([C@H]3C=C[C@@H](CO)C3)c2n1 [Abacavir sulfate]	0.7	0.67	0.78	0.67	0.84	0.77
Clc1ccccc1C(c1ccccc1)(c1ccccc1)n1ccnc1 [Clotrimazole]	0.47	0.7	1.12	0.59	0.06	0.05
NC(=O)[C@@H]1CCCN1C(=O)[C@H](Cc1c[nH]cn1)NC(=O)[C@@H]1CCC(=O)N1 [Protirelin]	0.8	0.69	0.79	0.71	0.73	0.63
CNC(=O)c1cc(Oc2ccc(NC(=O)Nc3ccc(Cl)c(C(F)(F)F)c3)cc2)ccn1 [Sorafenib Tosylate]	1.36	0.82	0.76	0.8	0.88	0.92
COc1c(N2CCNC(C)C2)c(F)cc2c(=O)c(C(=O)O)cn(C3CC3)c12 (centres undefined) [Gatifloxacin]	0.82	1.13	1.22	1.33	1.14	1.25
N.N.O=C([O-])C[O-].[Pt+2] [Nedaplatin]	0.7	1.28	0.71	1.28	1.03	1.17
Cc1ccc(Nc2nccc(N(C)c3ccc4c(C)n(C)nc4c3)n2)cc1S(N)(=O)=O	0.86	0.66	0.65	0.78	0.98	0.83
CC(C)c1ccc2oc3nc(N)c(C(=O)O)cc3c(=O)c2c1 [Amlexanox]	0.94	0.76	0.76	0.7	0.76	0.7
C[C@]12C=CC(=O)N[C@@H]1CC[C@@H]1[C@@H]2CC[C@]2(C)[C@@H](C(=O)Nc3cc(C(F)(F)F)ccc3C(F)(F)F)CC[C@@H]12 [Dutasteride]	1.44	1.14	1.37	1.31	1.03	1.17
CCNC(=O)CCC/C=C\C[C@@H]1[C@@H](/C=C/[C@@H](O)CCc2ccccc2)[C@H](O)C[C@@H]1O [Bimatoprost]	0.77	0.9	0.79	0.56	0.79	0.89

Just growth (C. auris AR-387; 10 µM), for some of the entries so far:
Structure (SMILES),growth (C. auris AR-387; 10 µM)
Cc1c(-c2ccc(O)cc2)n(Cc2ccc(OCCN3CCCCCC3)cc2)c2ccc(O)cc12 [Bazedoxifene HCl],0.97
Cc1ccc(Nc2nccc(N(C)c3ccc4c(C)n(C)nc4c3)n2)cc1S(N)(=O)=O [Pazopanib],1.1

(cont.)

Structure (SMILES)	growth (C. auris AR-384; 1 µM)	growth (C. auris AR-384; 10 µM)	growth (C. auris AR-386; 1 µM)	growth (C. auris AR-386; 10 µM)	growth (C. auris AR-387; 1 µM)	growth (C. auris AR-387; 10 µM)
CC1CCC(C(C)C)C(O)C1 (single isomer, unassigned; (-)) [(-)-Menthol]	1.16	1.09	0.98	1.17	0.8	0.99
COC(=O)C1=C(C#N)NC(C)=C(C(=O)OC(C)C)C1c1cccc([N+](=O)[O-])c1 (centres undefined) [Nilvadipine]	0.92	1.07	0.81	0.87	1.02	0.87
N[C@@H](CC(=O)N1CCn2c(nnc2C(F)(F)F)C1)Cc1cc(F)c(F)cc1F [Sitagliptin phosphate monohydrate]	0.77	0.76	1	0.81	0.7	0.79
C#C[C@]1(O)CC[C@H]2[C@@H]3CCC4=CCCC[C@@H]4[C@H]3C(=C)C[C@@]21CC [Desogestrel]	0.85	0.91	0.9	0.81	0.99	0.78
CCOc1ccc2nc(S(N)(=O)=O)sc2c1 [Ethoxzolamide]	1.16	1.08	0.95	1.09	0.83	0.66
COc1cc2/c(=N/c3ccc(Br)cc3F)nc[nH]c2cc1OCC1CCN(C)CC1 [Vandetanib (ZD6474)]	0.7	0.78	1.11	0.94	1.11	0.89
O=C(O)CCCC[C@@H]1SC[C@@H]2NC(=O)N[C@@H]21 [Biotin (Vitamin B7)]	0.96	0.79	1.2	0.62	0.78	0.92
CC[C@H](NC(=O)[C@H](C)NC)C(=O)N1C[C@@H](O)C[C@H]1Cc1c(-c2[nH]c3cc(F)ccc3c2C[C@@H]2C[C@H](O)CN2C(=O)[C@H](CC)NC(=O)[C@H](C)NC)[nH]c2cc(F)ccc12 [Birinapant]	1.06	1.23	1.22	0.89	0.86	0.75
CC(=O)O[C@@]12CO[C@@H]1C[C@H](O)[C@@]1(C)C(=O)[C@H](O)C3=C(C)[C@@H](OC(=O)[C@H](O)[C@@H](NC(=O)OC(C)(C)C)c4ccccc4)C[C@@](O)([C@@H](OC(=O)c4ccccc4)[C@H]21)C3(C)C [Docetaxel Trihydrate]	0.69	0.63	0.82	0.67	0.69	0.74
C#Cc1cccc(Nc2ncnc3cc4c(cc23)OCCOCCOCCO4)c1 [Icotinib]	0.96	0.84	0.6	0.81	0.71	0.89
O=C(O)c1cc(-c2ccc(F)cc2F)ccc1O [Diflunisal]	0.93	0.79	0.88	0.68	0.6	0.53
CCCCC(=O)O[C@H]1CC[C@H]2[C@@H]3CCc4cc(O)ccc4[C@H]3CC[C@]12C [Estradiol valerate]	0.9	0.97	0.9	0.58	0.62	1.03
O[C@@H]1CO[C@H]2[C@@H]1OC[C@@H]2O [Isosorbide]	1.27	1.28	1.56	1.45	1.54	1.47
C[C@@H]1C/C=C/C=C/C=C/C=C/[C@H](O[C@@H]2O[C@H](C)[C@@H](O)[C@H](N)[C@@H]2O)C[C@@H]2O[C@](O)(C[C@@H](O)C[C@H]3O[C@@H]3/C=C/C(=O)O1)C[C@H](O)[C@H]2C(=O)O [Natamycin]	1.04	1.19	1.28	0.93	0.87	0.91
CC1(C)[C@@H](OC(=O)CCC(=O)O)CC[C@]2(C)[C@H]3C(=O)C=C4[C@@H]5C[C@@](C)(C(=O)O)CC[C@]5(C)CC[C@@]4(C)[C@]3(C)CC[C@@H]12 [Carbenoxolone Sodium]	0.98	0.85	0.99	0.8	0.78	1
N=C(N)NC(=O)c1nc(Cl)c(N)nc1N [Amiloride HCl dihydrate]	1.57	1.49	1.25	1.17	1.34	1.07
CCNC1(C(N)=O)CCN(c2ncnc3c2nc(-c2ccccc2Cl)n3-c2ccc(Cl)cc2)CC1	0.9	0.69	0.92	0.91	0.88	0.86
CCOC(=O)C1=C[C@]2(CC)CCCN3CCc4c(n1c1ccccc41)[C@@H]32 [Vinpocetine]	1.12	0.82	0.95	0.82	0.85	0.92
O=C1Nc2ccc(Cl)cc2[C@@](C#CC2CC2)(C(F)(F)F)O1 [Efavirenz]	1.03	1.06	0.88	0.9	0.7	0.74

From the supplement of paper PMC10470496
